Measurements reported in PubChem BioAssay AID1508597 (Cure First, 2020)

Test: 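Genes whose silencing sensitises or protects ovarian cancer cells against rucaparib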 (primary screen)
Cell system: human ovarian carcinoma lines grown from tumours: OCI-P5x (papillary serous) and OCI-C5x (clear cell)
Knock-down reagent: siRNA pool against human genes, 1.25 pmol siRNA per well
Duration: 72 h or 96 h, depending on the cell culture
Challenge: rucaparib 20 µM (about IC30) or vehicle, present until read-out
Rucaparib or vehicle: Vehicle
Cell line: OCI-C5x (clear cell)
Read-out: 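ATP luminescence measured at 72 or 96 h according to the culture, then normalised and expressed as percent viability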
Scale: viability, normalised: higher = more viable cells remaining
Active means: 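Active when normalised viability falls below 80 percent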
Meaning of the calls: active = viability under 80%; inactive = viability 80% or more
Shown is a random part of the about 2,100 reagents, under one of the conditions tested. 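Calls flag viability under 80% in either arm, not effects specific to rucaparib; the reference for percent is not stated.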 Some reagents were tested in more than one well and are listed for each. Not stated in the record: the 100% reference.

For PLCG1, technical replicate 1, the entry reads viability, normalised (%) = 50.9; active.
For PLCG1, technical replicate 2, the entry reads viability, normalised (%) = 57.2; active.
With PLCG1, technical replicate 3, the entry reads viability, normalised (%) = 58.8; active.
NAP1L3, technical replicate 1 scored viability, normalised (%) = 56.8; active.
With NAP1L3, technical replicate 2 the deposit lists viability, normalised (%) = 53.5; active.
NAP1L3, technical replicate 3 scored viability, normalised (%) = 54.7; active.
For GRK1, technical replicate 1 the deposit lists viability, normalised (%) = 84.3; inactive.
GRK1, technical replicate 1 scored viability, normalised (%) = 50.2; active.
GRK1, technical replicate 1 gave viability, normalised (%) = 33.7; active.
GRK1, technical replicate 2 gave viability, normalised (%) = 39.6; active.
With GRK1, technical replicate 2, the entry reads viability, normalised (%) = 46.8; active.
For GRK1, technical replicate 2, the entry reads viability, normalised (%) = 35.9; active.
With GRK1, technical replicate 3, the entry reads viability, normalised (%) = 55.2; active.
GRK1, technical replicate 3 showed viability, normalised (%) = 67.5; active.
For GRK1, technical replicate 3 the deposit lists viability, normalised (%) = 43.4; active.
HDGFL3, technical replicate 1 scored viability, normalised (%) = 61.4; active.
HDGFL3, technical replicate 2 gave viability, normalised (%) = 52.6; active.
HDGFL3, technical replicate 3 scored viability, normalised (%) = 72.5; active.
PET117, technical replicate 1 scored viability, normalised (%) = 38.8; active.
PET117, technical replicate 2 showed viability, normalised (%) = 55.4; active.
PET117, technical replicate 3 gave viability, normalised (%) = 39.7; active.
APBB1, technical replicate 1 showed viability, normalised (%) = 24.4; active.
APBB1, technical replicate 2 gave viability, normalised (%) = 30.1; active.
With APBB1, technical replicate 3, the values are viability, normalised (%) = 27.7; active.
For NFRKB, technical replicate 1, the values are viability, normalised (%) = 61.5; active.
NFRKB, technical replicate 2 scored viability, normalised (%) = 44.2; active.
For NFRKB, technical replicate 3 the deposit lists viability, normalised (%) = 63.8; active.
CLDN5, technical replicate 1 showed viability, normalised (%) = 47; active.
For CLDN5, technical replicate 2 the deposit lists viability, normalised (%) = 70; active.
CLDN5, technical replicate 3 showed viability, normalised (%) = 46.3; active.
For MAP3K2, technical replicate 1, the entry reads viability, normalised (%) = 55.9; active.
For MAP3K2, technical replicate 2, the entry reads viability, normalised (%) = 52.8; active.
MAP3K2, technical replicate 3 gave viability, normalised (%) = 54; active.
